Results reported in patent US11167048B2 (priority 2018, dated 2021).

Key:
[1] = Fmoc solid-phase peptide synthesis; Rink; details: whole synthesis
[2] = general procedure: Fmoc solid-phase peptide synthesis; Rink

Substance	isolated yield [1]	conjugation yield ([2]; conjugation step, on precursor DUPA-6-Ahx-Lys-6-Ahx-RM2)	isolated yield ([2]; whole synthesis)
DUPA-6-Ahx-Lys-6-Ahx-RM2	˜60%		
PEPTIDE1{[DUPA].[6-Ahx].K.[6-Ahx].[dF].Q.W.A.V.G.H.[Sta].L.[am]}|PEPTIDE2{[DOTA]}$PEPTIDE1,PEPTIDE2,3:R3-1:R2$$$V2.0 [DUPA-6-Ahx-Lys(DOTA)-6-Ahx-RM2]		˜35%	58%

For part of these data: HELM strings list residues between dots; [ac] is acetyl, [am] amide, other brackets name non-standard units.
